Test results published in PubChem BioAssay AID1347076 (National Center for Advancing Translational Sciences (NCATS), 2019).
The campaign covered roughly 400,000 compounds. About 13,000 (3.2%) were called active. Inconclusive means that the source gave no clear call. Such entries were picked first, then a sample of the others. Calls follow the shape of the dose curve; as a rule, active = well fitted cell-killing curve with a large enough effect; inconclusive = small, poorly fitted or top-dose-only effect, or effect the other way; inactive = flat fitted curve, though single readings scatter. Where the call is inconclusive, the potency comes from a doubtful curve fit.

experiment: qHTS assay for MDR1-selective chemotherapeutics: Primary screen using the drug-selected MDR subline cells KB-V1; settings: KB-V1 MDR cells viability, CellTiter-Glo, 72 h; activity change, negative = cytotoxicity: at 46.1 µM (top of the series); also: nearly all actives have a fitted effect of over 60% in size
Outline: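 Readout: CellTiter-Glo luminescence, 10 min after addition. Cells: KB-V1 MDR subline, 72 h at 37 degrees C with compound. Analysis: corrected, normalized data fitted to concentration-effect curves.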
% is scaled to controls: 0 for no effect and ±100 for the full control effect; potency is read from the fitted curve at half-maximal effect.

| SMILES | activity change, negative = cytotoxicity | Potency |
| --- | --- | --- |
| Cc1ccc(Cn2c(C)c3cnn(CC(=O)NC4CCCC4)c(=O)c3c2C)cc1 | inactive: -5.96% |  |
| CCOCCCNC(=O)C(c1ccc(OC)cc1)N(Cc1ccc2c(c1)OCO2)C(=O)c1cnccn1 (stereo unspecified) |  | inconclusive: 16.4 µM [cytotoxic, single point] |
| COc1ccc(NC(=O)C2Cc3c(-c4cccc(F)c4)ccnc3O2)cn1 (stereo unspecified) |  | inconclusive: 6.51 µM [cytotoxic, partial curve] |
| Cc1ccc(S(=O)(=O)N2CCCCC2)cc1NC(=O)CSc1nnc(N)s1 | inactive: 25.8% |  |
| Cc1ccc(Nc2cc(C)nc(-c3ccccc3)n2)cc1 | inactive: -2.33% |  |
| COc1cc(C(=O)CCN2CCC(c3ccccc3)C2)cc(OC)c1OC (stereo unspecified) | inactive: -11.9% |  |
| COc1ccc(NC(=O)CNC(=O)c2nn(-c3ccc(OC)c(Cl)c3)c(=O)c3ccccc23)c(OC)c1 |  | inconclusive: 23.1 µM [cytotoxic, single point] |
| CC1CCCc2sc3nc(N4CCN(CCO)CC4)n4ncnc4c3c21 (stereo unspecified) |  | inconclusive: 20.6 µM [cytotoxic, partial curve, poor fit] |
| Cc1ccc(OCCCC(=O)N(C)CC(=O)Nc2ccccc2Cl)cc1 | inactive: -9.52% |  |
| C=CCc1cccc(Cl)c1OCCCNC1CCCC1 |  | inconclusive: 6.51 µM [cytotoxic, partial curve] |
| CC(C)[C@H](NC(=O)OCc1ccccc1)C(=O)OCC(=O)N1CCCCC1 | inactive: -11.7% |  |
| O=S(=O)(c1ccc(F)cc1)N1CCC2(CC1)OCCO2 |  | inconclusive: 29.1 µM [rising, single point] |
| O=C(CSc1nnc(-c2cccs2)o1)NCC1CN(Cc2ccccc2)CCO1 (stereo unspecified) |  | inconclusive: 16.4 µM [cytotoxic, partial curve] |
| CCC(=O)Nc1ccc(S(=O)(=O)N2CCN(c3ccc(F)cc3)CC2)cc1 |  | inconclusive: 18.4 µM [cytotoxic, single point] |
| COc1cc(-c2nc(-c3ccc(NC(=O)c4ccc5c(c4)OCO5)cc3)no2)cc(OC)c1OC | inactive: 0% |  |
| FC(F)Oc1ccc(-n2cc(-c3ccccc3)[n+]3c2CCCCC3)cc1 | inactive: 23% |  |
| CCN(CC(=O)Nc1ccc2c(c1)OCCO2)C(=O)/C=C/c1ccc(OC)c(OC)c1 |  | inconclusive: 29.1 µM [cytotoxic, partial curve, poor fit] |
| COc1ccccc1-c1nn(Cc2ccccc2)cc1/C=C/C(=O)O | inactive: 14.4% |  |
| CCSCCOC(=O)C1=C(C)N(C)C(=O)NC1c1ccc2c(c1)OCO2 (stereo unspecified) | inactive: -5.98% |  |
| Cc1ccnc(SCC(=O)Nc2sc3c(c2C#N)CCC(C(C)(C)C)C3)n1 (stereo unspecified) |  | active: 13 µM |
| CC(C)(C)NC(=S)NC(=O)C12CCC3CC(CC(C3)C1)C2 | inactive: 15.1% |  |
| CCc1ccccc1NC(=O)Cn1nc(N2CCN(c3ccccc3OC)CC2)ccc1=O | inactive: -0.209% |  |
| O=C(c1ccc(C#CC2(O)CCCCC2)cc1)N1CCOCC1 |  | inconclusive: 10.3 µM [cytotoxic, partial curve, poor fit] |
| O=C(CSc1nnc(CNC(=O)c2ccc(F)cc2)o1)c1ccccc1 |  | inconclusive: 29.1 µM [cytotoxic, single point] |

| SMILES | activity change, negative = cytotoxicity | Potency |
| --- | --- | --- |
| COc1cc(/C=C/C(=O)NCCn2c(C)cc3ccccc32)cc(OC)c1OC |  | inconclusive: 0.58 µM [cytotoxic, full curve] |
| CSc1nc(SCCO)c2sc3nc(-c4ccco4)c4c(c3c2n1)CC(C)(C)OC4 | inactive: 6.38% |  |
| CCOC(=O)c1c(CN2CCOCC2)n(-c2ccccc2)c2cc(Br)c(OC)cc12 |  | active: 18.4 µM |
| COc1ccc(NS(=O)(=O)c2c(C)cc(C)cc2C)cc1 |  | inconclusive: 25.9 µM [cytotoxic, single point] |
| CCOC(=O)c1nc(NCc2ccccc2)c2ccccc2n1 | inactive: -25.2% |  |
| Cc1ccc(NC(=O)c2ccc3nsnc3c2)c(Cl)c1 |  | inconclusive: 0.366 µM [rising, full curve] |
| CCN(CC)S(=O)(=O)c1ccc(NC2c3ncccc3C(=O)N2Cc2ccccc2)cc1 (stereo unspecified) |  | inconclusive: 29.1 µM [cytotoxic, single point] |
| O=C(CSCc1ccccc1Br)NNC(=S)NCc1ccco1 |  | inconclusive: 20.6 µM [cytotoxic, single point] |
| Cc1[nH]c2ccccc2c1NC(=O)CN1CCN(c2cccc(C(F)(F)F)c2)CC1 | inactive: -8.73% |  |
| COc1ccsc1C(=O)NCCN1CCOCC1 |  | inconclusive: 29.1 µM [rising, single point] |
| Cc1cc(C)c(OCCOCCn2c(-c3ccc(Cl)cc3)nc3ccccc3c2=O)c(C)c1 |  | inconclusive: 20.6 µM [rising, partial curve, poor fit] |
| COc1ccc(C)cc1N1C(=N)/C(=C2/Nc3ccccc3S2)C(c2ccccc2)C1=O (stereo unspecified) |  | active: 20.6 µM |
| NC(=S)N/N=C/c1c(O)c(Br)cc2oc3c(c12)CCCC3 |  | inconclusive: 8.2 µM [cytotoxic, partial curve] |
| CC1CCN(c2ccc(S(=O)(=O)NC3=NCCCCC3)cc2[N+](=O)[O-])CC1 |  | active: 20.6 µM |
| CNC(=O)C1Cc2c(-c3ccccc3Oc3ccccc3)ccnc2O1 (stereo unspecified) | inactive: 3.19% |  |
| Cc1ccc(S/C=C\C(=O)c2ccccc2)cc1 |  | inconclusive: 29.1 µM [cytotoxic, single point] |
| COC(=O)Cc1c(O)ccn(CCc2c[nH]c3ccc(OC)cc23)c1=O |  | inconclusive: 1.16 µM [rising, full curve, poor fit] |
| O=C(CN(c1ccc(F)cc1)S(=O)(=O)c1ccc2c(c1)OCCO2)Nc1cccnc1 |  | inconclusive: 7.31 µM [cytotoxic, partial curve] |
| CN(Cc1cccc2ccccc12)C(=O)c1cc(COc2c(F)cccc2F)on1 |  | inconclusive: 23.1 µM [cytotoxic, single point] |
| Cc1cc(C)n2nc(SCC(=O)NC(=O)c3ccc(OC(F)F)cc3)nc2n1 | inactive: -19% |  |
| COc1ccc(NC(=O)c2cc(-c3ccc(C)o3)nc3ccccc23)c(OC)c1 |  | inconclusive: 3.66 µM [cytotoxic, partial curve] |
| Cc1ccc2c(c1)CCCN2C(=O)c1cc(C)c(C)s1 |  | inconclusive: 23.1 µM [cytotoxic, single point] |
| Cc1cccc(NC(=S)N2CCN(S(=O)(=O)c3ccc(F)cc3)CC2)c1 | inactive: -2.57% |  |
| CSCCC(NC(=O)COc1ccccc1)C(=O)N1CC(C)CC(C)C1 (stereo unspecified) |  | inconclusive: 5.8 µM [cytotoxic, full curve, poor fit] |

Some of these compounds in order of molecular weight, falling:

| SMILES | activity change, negative = cytotoxicity | Potency |
| --- | --- | --- |
| Cc1[nH]c2ccccc2c1NC(=O)CN1CCN(c2cccc(C(F)(F)F)c2)CC1 | inactive: -8.73% |  |
| CC1CCN(c2ccc(S(=O)(=O)NC3=NCCCCC3)cc2[N+](=O)[O-])CC1 |  | active: 20.6 µM |
| CSCCC(NC(=O)COc1ccccc1)C(=O)N1CC(C)CC(C)C1 (stereo unspecified) |  | inconclusive: 5.8 µM [cytotoxic, full curve, poor fit] |
| Cc1ccc2c(c1)CCCN2C(=O)c1cc(C)c(C)s1 |  | inconclusive: 23.1 µM [cytotoxic, single point] |
| COc1ccsc1C(=O)NCCN1CCOCC1 |  | inconclusive: 29.1 µM [rising, single point] |

(cont.)

| SMILES | activity change, negative = cytotoxicity | Potency |
| --- | --- | --- |
| O=C(CN1CCCc2ccccc21)N/N=C/c1ccccc1O |  | active: 13 µM |
| O=C(Nc1nccs1)c1csc([C@H]2C[C@H](O)[C@@H](CO)O2)n1 | inactive: 0.0715% |  |
| CCN1CCN(c2ccc(NC(=O)c3ccc(Cl)c(S(=O)(=O)N4CCCC4)c3)cc2)CC1 | inactive: 2.61% |  |
| Cc1nc(N2CCN(c3ccccn3)CC2)c2c(C)c(C(=O)Nc3ccc(F)cc3F)sc2n1 |  | active: 11.6 µM |
| CCCSc1nc2c(c(=O)n1-c1ccc(OCC)cc1)SCC2 |  | inconclusive: 2.06 µM [cytotoxic, full curve] |
| CCOC(=O)C1=C(C)N(C)C(C)=C(C(=O)OCC)C1c1ccc(C(=O)OC)cc1 |  | inconclusive: 16.4 µM [cytotoxic, partial curve, poor fit] |
| COC(=O)CN(c1cc(Cl)ccc1OC)S(=O)(=O)c1ccc(OC)c(OC)c1 |  | active: 2.31 µM |
| COc1ccc(-c2noc(CN(C)S(=O)(=O)c3ccc(C)cc3)n2)cc1 |  | inconclusive: 16.4 µM [cytotoxic, single point] |
| COc1cccc(NC(=S)N(Cc2ccccn2)Cc2ccccc2Cl)c1 |  | inconclusive: 23.1 µM [cytotoxic, single point] |
| Cc1ccc(S(=O)(=O)CC(=O)NCc2ccc(Cl)cc2)cc1 |  | inconclusive: 18.4 µM [cytotoxic, single point] |
| CO/N=C(\Cn1ncc(N2CCCC2)c(Cl)c1=O)c1ccc(Cl)cc1 |  | inconclusive: 8.2 µM [cytotoxic, partial curve, poor fit] |
| C=CCNC(=O)/C(=C\C=C\c1ccccc1)NC(=O)c1ccccc1Cl |  | inconclusive: 18.4 µM [cytotoxic, single point] |
| COc1ccc(CC(=O)Nc2sc3c(c2C(N)=O)CCCC3)cc1 |  | inconclusive: 0.0046 µM [rising, full curve] |
| Cc1ccc2nc(N(CCN(C)C)C(=O)C3CCN(S(=O)(=O)c4cccs4)CC3)sc2c1 | inactive: -8.07% |  |
| O=C1NC[C@H](CCCCN2C[C@H](Cc3ccccc3)N(CCc3ccccc3)C(=O)C2=O)N(CCC2CCCCC2)C1=O |  | inconclusive: 29.1 µM [rising, single point] |
| CCN(CC(=O)Nc1ccc(NC(C)=O)cc1)C(=O)C(c1ccccc1)c1ccccc1 | inactive: 23.9% |  |
| C#CCOCCOCCOCCNc1nc(N2CCN(C(=O)CCCCCCCCCCNC(=O)[C@H](CCCCN)n3cc(CCO)nn3)CC2)nc(N2CCN(C(=O)CCCCCCCCCCNC(=O)[C@H](CCCN=C(N)N)n3cc(C[C@@H](C)CC)nn3)CC2)n1 | inactive: 6.67% |  |
| CC1(C(=O)OCC(=O)NC(=O)NCc2ccccc2)CC1(Cl)Cl (stereo unspecified) |  | inconclusive: 1.84 µM [rising, partial curve, poor fit] |
| O=C1CCCCCN1C(=O)c1cccc(C(=O)N2CCCCCC2=O)c1 |  | inconclusive: 14.6 µM [rising, partial curve] |
| Cc1cccc(NCc2nnc(-c3ccccc3)o2)c1C |  | active: 18.4 µM |
| COc1ccc(-c2oc(=O)c3cc(OC)c(OC)cc3c2C#CC2(O)CCCCC2)cc1 |  | inconclusive: 29.1 µM [rising, single point] |
| COc1c(F)cccc1C1=CC(=O)C[C@H](c2ccc3c(c2)OCO3)C1 | inactive: -4.14% |  |
| CC1(C)CC(=O)C2=C(C1)c1c(ccc3ncccc13)NC2c1cccs1 (stereo unspecified) |  | active: 5.8 µM |
